In paper PMC11383184:
Results are given in words; binding and its absence hold for the method and conditions named. Binding seen in cells or lysates may run through a third protein. Some binding calls cover weakened binding; strength is not graded here.

Amino acid sequences for entries named in this document (tags omitted). Residues count along the entry.
UniProt P09103, residues 20-509: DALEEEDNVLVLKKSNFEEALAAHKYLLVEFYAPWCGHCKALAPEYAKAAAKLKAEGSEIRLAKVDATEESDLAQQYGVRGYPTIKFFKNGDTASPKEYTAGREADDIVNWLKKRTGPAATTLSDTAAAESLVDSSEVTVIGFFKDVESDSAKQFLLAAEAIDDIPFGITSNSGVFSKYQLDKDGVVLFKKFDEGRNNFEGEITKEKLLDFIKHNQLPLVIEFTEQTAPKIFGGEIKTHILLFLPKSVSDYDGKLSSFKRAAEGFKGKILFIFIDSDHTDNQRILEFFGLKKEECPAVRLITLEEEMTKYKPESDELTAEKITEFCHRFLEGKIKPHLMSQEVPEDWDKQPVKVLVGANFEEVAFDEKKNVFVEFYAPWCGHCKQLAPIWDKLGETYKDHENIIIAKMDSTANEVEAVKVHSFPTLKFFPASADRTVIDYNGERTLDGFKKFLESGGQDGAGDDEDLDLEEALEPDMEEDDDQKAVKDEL
UniProt P48722: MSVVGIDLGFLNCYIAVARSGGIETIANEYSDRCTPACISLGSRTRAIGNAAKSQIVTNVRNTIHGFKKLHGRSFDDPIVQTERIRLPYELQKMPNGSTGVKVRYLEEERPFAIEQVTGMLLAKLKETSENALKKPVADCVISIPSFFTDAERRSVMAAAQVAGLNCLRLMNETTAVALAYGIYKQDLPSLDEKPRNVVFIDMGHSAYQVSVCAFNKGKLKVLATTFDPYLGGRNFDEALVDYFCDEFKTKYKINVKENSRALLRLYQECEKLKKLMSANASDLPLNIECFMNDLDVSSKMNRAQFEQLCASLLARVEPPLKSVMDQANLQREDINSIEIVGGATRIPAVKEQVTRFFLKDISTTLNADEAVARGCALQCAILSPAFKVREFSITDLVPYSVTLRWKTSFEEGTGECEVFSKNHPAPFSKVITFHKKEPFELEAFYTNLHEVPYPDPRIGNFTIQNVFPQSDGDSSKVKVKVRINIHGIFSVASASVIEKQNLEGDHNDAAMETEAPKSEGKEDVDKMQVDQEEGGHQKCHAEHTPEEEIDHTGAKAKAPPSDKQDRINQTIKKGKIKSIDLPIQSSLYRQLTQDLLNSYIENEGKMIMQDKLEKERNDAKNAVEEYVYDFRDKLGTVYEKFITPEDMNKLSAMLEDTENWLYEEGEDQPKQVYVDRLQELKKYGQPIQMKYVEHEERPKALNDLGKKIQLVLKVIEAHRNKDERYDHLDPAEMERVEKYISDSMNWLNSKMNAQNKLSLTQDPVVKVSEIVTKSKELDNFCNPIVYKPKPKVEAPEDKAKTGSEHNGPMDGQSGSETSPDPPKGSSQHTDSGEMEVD

Target: protein disulfide isomerase (mouse (endogenous in testes)) (UniProt P09103)
Experiment: co-IP; anti-PDI antibody added to testes lysates of WT mice overnight at 4°C, protein G beads 2 hours, washed 3 times with lysis buffer (20 mM Tris-HCl, 150 mM NaCl pH 7.4, 1% Triton X-100, 1 mM EDTA, 0.5% sodium deoxycholate); partners detected by Western blotting

binding: binds
Substance: HSPA4L (from UniProt P48722 1-838)
